Data published in paper PMC4872778.
No constants are given. Whether binding was seen depends on the method and setting. In cells and extracts the contact can be indirect. Some entries that bind do so weakly or less than the wild type.

How the values were obtained:
[1] = biological target: DAPK, wild type, as used in the IP assays of Figures 3A, 3B and 4D (UniProt P53355); assay: co-IP; reciprocal immunoprecipitation of DANGER and DAPK in NSCLC cells (Figure 3A, 3B); antibodies and constructs not told
[2] = biological target: T1, DAPK DD-only as used in the IP assay of Figure 4D (UniProt P53355); assay: co-IP; IP assay ('binding assay') of DAPK forms (WT, DD-only, ΔDD) with DANGER (Figure 4D); antibodies and constructs not told
T1 sequence: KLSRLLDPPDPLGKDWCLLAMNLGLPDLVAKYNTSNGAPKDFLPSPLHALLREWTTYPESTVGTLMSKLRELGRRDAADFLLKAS

[3] = biological target: DAPK, wild type, as used in the IP assays of Figures 3A, 3B and 4D (UniProt P53355); assay: as above
[4] = biological target: death-associated protein kinase (DAPK), endogenous (human (endogenous in NCI-H460 and A427)) (UniProt P53355); assay: co-IP; IP assay of endogenous DANGER and endogenous DAPK in NSCLC cells (NCI-H460, A427), with HG treatment (Figure 3C)
[5] = biological target: T2, DAPK DD-only-VN (from pBiFC-DAPK (DD-only)-VN) (UniProt P53355); assay: split reporter; BiFC with Venus fragments (VN on DAPK forms, VC on DANGER) in transiently transfected live NCI-H460 or A427 cells; fluorescence microscopy
T2 sequence: T1 sequence

[6] = biological target: DAPK-VN, wild type (from pBiFC-DAPK-VN) (UniProt P53355); assay: as above

B1: DANGER as used in the IP assays of Figures 3A, 3B and 4D (protein, UniProt Q8IWB1 16-547)
chain: IINHPLLFPRENATVPENEEEIIRKMQAHQEKLQLEQLRLEEEVARLAAEKEALEQVAEEGRQQNETRVAWDLWSTLCMILFLMIEVWRQDHQEGPSPECLGGEEDELPGLGGAPLQGLTLPNKATLGHFYERCIRGATADAARTREFLEGFVDDLLEALRSLCNRDTDMEVEDFIGVDSMYENWQVDRPLLCHLFVPFTPPEPYRFHPELWCSGRSVPLDRQGYGQIKVVRADGDTLSCICGKTKLGEDMLCLLHGRNSMAPPCGDMENLLCATDSLYLDTMQVMKWFQTALTRAWKGIAHKYEFDLAFGQLDSPGSLKIKFRSGKFMPFNLIPVIQCDDSDLYFVSHLPREPSEGTPASSTDWLLSFAVYERHFLRTTLKALPEGACHLSCLQIASFLLSKQSRLTGPSGLSSYHLKTALLHLLLLRQAADWKAGQLDARLHELLCFLEKSLLQKKLHHFFIGNRKVPEAMGLPEAVLRAEPLNLFRPFVLQRSLYRKTLDSFYEMLKNAPALISEYSLHVPSDQPTPKS
In the case of B1, the binding [1] is reported as “binds”, the binding [2] is reported as “binds” and the binding [3] is reported as “binds”.

B2: DANGER (ITPRIP, inositol 1,4,5-trisphosphate receptor (IP3R) interacting protein), endogenous (protein, UniProt Q8IWB1 16-547)
chain: B1 chain
B2 was tested, and the binding [4] was “binds”.

B3: DANGER-VC (from pBiFC-DANGER-VC) (protein, UniProt Q8IWB1 16-547)
chain: B1 chain
With B3 the binding [5] was “binds” and the binding [6] was “binds”.
